The source of these data is publication doi:10.1101/393272.

These are yes or no findings as the source states them, for the method shown. For some assays here: In cells and extracts the contact can be indirect. Some binding calls cover weakened binding; strength is not graded here. Where a sequence is shown, tags or fusion partners need not be part of it.

For experiment [1], the target named is T1, SUMO3, yeast two-hybrid fusion (Supplemental Fig. S1E) (Arabidopsis thaliana) (UniProt Q9FLP5).
T1 sequence: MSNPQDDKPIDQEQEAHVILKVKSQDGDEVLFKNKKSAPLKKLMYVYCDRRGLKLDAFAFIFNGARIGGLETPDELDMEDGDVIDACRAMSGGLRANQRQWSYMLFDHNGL
Put plainly: two-hybrid.

Experiment [2] addresses T2, SCFP^C-tagged SIZ1 (Arabidopsis thaliana) (UniProt Q680Q4).
T2 sequence: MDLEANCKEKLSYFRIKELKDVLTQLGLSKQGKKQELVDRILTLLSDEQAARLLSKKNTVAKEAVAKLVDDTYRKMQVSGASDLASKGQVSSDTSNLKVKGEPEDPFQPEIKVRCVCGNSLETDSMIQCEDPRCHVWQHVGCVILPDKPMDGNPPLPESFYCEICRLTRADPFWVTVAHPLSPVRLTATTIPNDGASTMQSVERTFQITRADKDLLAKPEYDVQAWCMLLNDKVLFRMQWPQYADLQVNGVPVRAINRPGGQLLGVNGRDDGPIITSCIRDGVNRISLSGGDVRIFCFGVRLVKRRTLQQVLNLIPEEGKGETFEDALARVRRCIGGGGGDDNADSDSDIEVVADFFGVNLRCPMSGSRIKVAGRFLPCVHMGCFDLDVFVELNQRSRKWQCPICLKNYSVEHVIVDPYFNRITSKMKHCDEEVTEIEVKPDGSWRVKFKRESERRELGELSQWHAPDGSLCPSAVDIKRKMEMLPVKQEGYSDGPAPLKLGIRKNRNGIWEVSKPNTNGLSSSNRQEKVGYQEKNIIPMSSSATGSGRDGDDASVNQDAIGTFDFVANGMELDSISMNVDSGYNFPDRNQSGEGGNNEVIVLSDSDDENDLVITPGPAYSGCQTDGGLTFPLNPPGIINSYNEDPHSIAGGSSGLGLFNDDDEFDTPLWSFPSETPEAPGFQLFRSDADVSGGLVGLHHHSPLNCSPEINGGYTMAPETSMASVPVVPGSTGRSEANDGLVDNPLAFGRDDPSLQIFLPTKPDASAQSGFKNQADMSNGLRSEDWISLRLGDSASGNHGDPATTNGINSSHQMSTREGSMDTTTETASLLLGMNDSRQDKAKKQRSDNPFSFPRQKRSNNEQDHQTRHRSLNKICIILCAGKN
Put plainly: split reporter.

B1: SCE1 (SUMO E2 CONJUGATING ENZYME), GAL4 AD fusion (enzyme, UniProt Q42551 1-160)
chain: MASGIARGRLAEERKSWRKNHPHGFVAKPETGQDGTVNLMVWHCTIPGKAGTDWEGGFFPLTMHFSEDYPSKPPKCKFPQGFFHPNVYPSGTVCLSILNEDYGWRPAITVKQILVGIQDLLDTPNPADPAQTDGYHLFCQDPVEYKKRVKLQSKQYPALV
In the case of B1, the binding result in experiment [1] is “binds weakly”.

B2: SCFP^N-SCE1 (enzyme, UniProt Q42551 1-160)
chain: MASGIARGRLAEERKSWRKNHPHGFVAKPETGQDGTVNLMVWHCTIPGKAGTDWEGGFFPLTMHFSEDYPSKPPKCKFPQGFFHPNVYPSGTVCLSILNEDYGWRPAITVKQILVGIQDLLDTPNPADPAQTDGYHLFCQDPVEYKKRVKLQSKQYPALV
On to B2, for which, in experiment [2], the binding result was “binds”.
